Results reported in publication PMC7819943, “Rice protein-binding microarrays: a tool to detect cis-acting elements near promoter regions in rice”.
Some of the results follow.

biological target: T1, OsSMF1 (Oryza sativa, UniProt Q6ZLB0 1-436); assay: protein-binding microarray (RPBM); PBS, 2% BSA, 51.3 ng/ul salmon testes DNA, 50 uM zinc acetate, 200 nM TF, 25 C, 1 h; high values mean tight binding; settings: protein: recombinant; tags: N-terminal polyhistidine and DsRed monomer fusion (pET32a); chain copies: 2; label: CyDye5-dUTP incorporated in the synthesized complementary strand; 3' TTTTT single-stranded linker to array surface; dsDNA, one strand shown
T1 sequence: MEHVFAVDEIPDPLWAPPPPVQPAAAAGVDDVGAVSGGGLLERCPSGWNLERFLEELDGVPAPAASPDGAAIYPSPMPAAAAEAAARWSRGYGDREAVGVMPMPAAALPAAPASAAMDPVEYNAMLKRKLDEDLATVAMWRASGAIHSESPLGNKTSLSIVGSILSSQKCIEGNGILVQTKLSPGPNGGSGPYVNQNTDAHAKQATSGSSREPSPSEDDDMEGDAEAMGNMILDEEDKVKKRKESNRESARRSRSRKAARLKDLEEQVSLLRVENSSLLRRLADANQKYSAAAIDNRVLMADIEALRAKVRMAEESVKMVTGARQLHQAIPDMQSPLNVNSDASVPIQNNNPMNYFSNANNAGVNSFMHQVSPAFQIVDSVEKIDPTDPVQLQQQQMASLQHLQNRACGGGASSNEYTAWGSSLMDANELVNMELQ
Summary of the method: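 Ni–NTA purification followed expression in E. coli BL21-CodonPlus of transcription factors fused N-terminally to a polyhistidine tag and DsRed. At 200 nM in PBS with 2% BSA, salmon testes DNA and 50 µM zinc acetate, the protein was incubated for 1 h at 25 °C with a custom Agilent array that had been primer-extended with Cy5-dUTP and blocked with 2% BSA. After washing, the array was read on an Axon 4000B scanner. The binding signal is per-feature fluorescence intensity in arbitrary units.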

Sequence	binding signal
TTGCAGGTTTGCAGCTACAGTAGTAGCAGACTGCCATTTTCGGAGTCACCTAGTGCAG	3470 fluorescence intensity (a.u.)
TCTGCGCCGCATGCCGCCACGCGCGCGACACACGCTCGCTCGGAGTCACCTAGTGCAG	4540 fluorescence intensity (a.u.)
GGCGTTGGGCCGGGCGCAACGGCGGGAGAGTCGACGCCGCCGGAGTCACCTAGTGCAG	19500 fluorescence intensity (a.u.)
CCGCTCGCCGTGCCGCGACCACGTGTGGCGCCCGCTGCCTCGGAGTCACCTAGTGCAG	5580 fluorescence intensity (a.u.)
GAATCTCAGCCGCGTCATCCACCTCATTGCTCTTATCCGACGGAGTCACCTAGTGCAG	16800 fluorescence intensity (a.u.)
GGTCTGCCGTTCTTTAGTCTGACTCGAATAGACAGGCTCGCGGAGTCACCTAGTGCAG	3260 fluorescence intensity (a.u.)
GAGTCTTGAGAACCTTGACGTCTCGAGCTCGAGCCGTACTCGGAGTCACCTAGTGCAG	3560 fluorescence intensity (a.u.)
TAAACCACAGCGTCCTGGAATTGTGAGTCATGCGTGATGCCGGAGTCACCTAGTGCAG	8290 fluorescence intensity (a.u.)
AACATCATAACAAATACTATTGAAGGGGTGGCCCAACTACCGGAGTCACCTAGTGCAG	22600 fluorescence intensity (a.u.)
GCTTTCCTCTTGCTACACTCCTTTTCTCCAAGTCATACACCGGAGTCACCTAGTGCAG	4100 fluorescence intensity (a.u.)
TAGGGTTCGGGTTCTCTCTAGGATCACCTAGATTTAGATCCGGAGTCACCTAGTGCAG	29500 fluorescence intensity (a.u.)
TTGTAGAACGTGACAAAGTCAGTGGCAAATCGTAGACGTGCGGAGTCACCTAGTGCAG	3180 fluorescence intensity (a.u.)
TTCTCTTCTCATCTGCTTGCAGCAGCGGTAGACAGTGCATCGGAGTCACCTAGTGCAG	28500 fluorescence intensity (a.u.)
CACCACCAACACCACCCGACCCAATCACAAACTGTGTGTTCGGAGTCACCTAGTGCAG	4740 fluorescence intensity (a.u.)
TTACATACGGATTATGTAATTTGTTTTGTTATTAATCTACCGGAGTCACCTAGTGCAG	3160 fluorescence intensity (a.u.)
ACTCCTCCGCTCGCTTTGCGCCATCGCCGCCACCGACGCCCGGAGTCACCTAGTGCAG	3950 fluorescence intensity (a.u.)
AGCATTTCTTCTCTTTGCAACTGATGCTGAACCACACCACCGGAGTCACCTAGTGCAG	3230 fluorescence intensity (a.u.)
CCTGCCTGTCACGCTACGATATTTAACGTGGCTGTTGGCCCGGAGTCACCTAGTGCAG	5510 fluorescence intensity (a.u.)
GTCTTCTCGTGTACACGCCGTACATATCAACTAGCAAATTCGGAGTCACCTAGTGCAG	3410 fluorescence intensity (a.u.)
AGTGGTGGGAGAACCTAGCAAACACGTCCGCTGTCCCAGACGGAGTCACCTAGTGCAG	4860 fluorescence intensity (a.u.)
GCGATGATTGGCTTGCACTCTGCCACGTAGGATCCGCTCCCGGAGTCACCTAGTGCAG	35700 fluorescence intensity (a.u.)

Sequence	binding signal
ACCCTTCCGCGAACCGCGGCGGTGAGAGAGGAAGACGTGGCGGAGTCACCTAGTGCAG	5450 fluorescence intensity (a.u.)
GACGACCTTGGCACCCAGCTTCCGTCACTCGCTCGCCGCGCGGAGTCACCTAGTGCAG	3220 fluorescence intensity (a.u.)
TGCGTGTATAACAGGTGGGACCAAGTATTAATAGTATAGTCGGAGTCACCTAGTGCAG	25900 fluorescence intensity (a.u.)
GCTCTCACTAGGGCCGACGTGGCCGGCGCCAGGCTTCGTCCGGAGTCACCTAGTGCAG	9140 fluorescence intensity (a.u.)
AGCTGCGACTGACCTGGACATGTATTCAACATTCGATCCACGGAGTCACCTAGTGCAG	3560 fluorescence intensity (a.u.)
CGCGTTCGTCGTGCTGTCGTGCGTCACCGCCGGCATGGGCCGGAGTCACCTAGTGCAG	10800 fluorescence intensity (a.u.)
GATATTTCTCTTTATCATGGTCACCGTTCATCATGAGCAACGGAGTCACCTAGTGCAG	25000 fluorescence intensity (a.u.)
CCTTCCGTTCAGGATTGTTCATGGCCACGCAGCCGAAGATCGGAGTCACCTAGTGCAG	3210 fluorescence intensity (a.u.)
TTTAGTAATTGGTAGAGCTCAAATTTCTAAATTTAACTTCCGGAGTCACCTAGTGCAG	3160 fluorescence intensity (a.u.)
GAAGAGCTCGAGTCCCAGGTTGACGCACGACTCCGCCGTCCGGAGTCACCTAGTGCAG	4460 fluorescence intensity (a.u.)
GATCATGAGCTCCACGGCGGCCAACGTGGCGGCGCCGACGCGGAGTCACCTAGTGCAG	8640 fluorescence intensity (a.u.)
TCGGAAGCCAAGCCCCAGGAAAGAGGAACGCACGAGCAGCCGGAGTCACCTAGTGCAG	13100 fluorescence intensity (a.u.)
CTTCACACGCACGTGCCACATCAACTAAGCTAGTACCTACCGGAGTCACCTAGTGCAG	5360 fluorescence intensity (a.u.)
ATTAATATCGTTATGATTTGATACGATTTGGTCTTCCCTTCGGAGTCACCTAGTGCAG	35800 fluorescence intensity (a.u.)
GACAAACCATCCCAATTCCAATCAATCATGGGCAAATCATCGGAGTCACCTAGTGCAG	3400 fluorescence intensity (a.u.)
CTTAACTTTGGGACCCACATGTCATGCTCTCAAATTTAGACGGAGTCACCTAGTGCAG	3460 fluorescence intensity (a.u.)
TACGTTAAAATTCGTGTGGAGACGTGTCACTCAAGATGACCGGAGTCACCTAGTGCAG	8520 fluorescence intensity (a.u.)
CCGTCCGGTGACTGACGTACGTGGATATGTTTTCATTTGACGGAGTCACCTAGTGCAG	4020 fluorescence intensity (a.u.)
GTACTCAGCATACTGGACGGCAGAAACAGCCGTGGCACTGCGGAGTCACCTAGTGCAG	3680 fluorescence intensity (a.u.)
GTCGGCTGAGGTGTGAGTTATCGTCTGTGCCGCGGGTCCACGGAGTCACCTAGTGCAG	3450 fluorescence intensity (a.u.)
AGATATTGTTTTGCCATTTTCTCTGCTGACGATGACGATGCGGAGTCACCTAGTGCAG	5400 fluorescence intensity (a.u.)

Reformatted as labelled records: entries from further up
AGCATTTCTTCTCTTTGCAACTGATGCTGAACCACACCACCGGAGTCACCTAGTGCAG
  binding signal = 3230 fluorescence intensity (a.u.)
CCTGCCTGTCACGCTACGATATTTAACGTGGCTGTTGGCCCGGAGTCACCTAGTGCAG
  binding signal = 5510 fluorescence intensity (a.u.)
